Data published in patent US5514670A, “Submicron emulsions for delivery of peptides” (Pharmos Corporation, priority 1993, dated 1996).
Not every detail of the peptide structures is certain; ends, links or a residue may be inferred.

System: anesthetized Sabra rats (blood calcium levels)
Assay: Colonic absorption of calcitonin: blood free Ca+2 levels after i.v. or i.c. administration
Format: in vivo, rat

CC(C)C[C@H](NC(=O)[C@H](CCCCN)NC(=O)CNC(=O)[C@H](CC(C)C)NC(=O)[C@@H](NC(=O)[C@@H]1CSSC[C@H](N)C(=O)N[C@@H](CO)C(=O)N[C@@H](CC(N)=O)C(=O)N[C@@H](CC(C)C)C(=O)N[C@@H](CO)C(=O)N[C@@H]([C@@H](C)O)C(=O)N1)C(C)C)C(=O)N[C@@H](CO)C(=O)N[C@@H](CCC(N)=O)C(=O)N[C@@H](CCC(=O)O)C(=O)N[C@@H](CC(C)C)C(=O)N[C@@H](Cc1c[nH]cn1)C(=O)N[C@@H](CCCCN)C(=O)N[C@@H](CC(C)C)C(=O)N[C@@H](CCC(N)=O)C(=O)N[C@H](C(=O)N[C@@H](Cc1ccc(O)cc1)C(=O)N1CCC[C@H]1C(=O)N[C@@H](CCCNC(=N)N)C(=O)N[C@H](C(=O)N[C@@H](CC(N)=O)C(=O)N[C@H](C(=O)NCC(=O)N[C@@H](CO)C(=O)NCC(=O)N[C@H](C(=O)N1CCC[C@H]1C(N)=O)[C@@H](C)O)[C@@H](C)O)[C@@H](C)O)[C@@H](C)O [calcitonin in saline, salmon calcitonin]
Maximal Effect (maximal decrease in basal Ca+2 levels) (I.C. 0.1 mg/kg): 8% | PA % (I.C. 0.1 mg/kg, relative to I.V. in saline): 3.5% | Maximal Effect (maximal decrease in basal Ca+2 levels) (I.C. 1.0 mg/kg): 13% | PA % (I.C. 1.0 mg/kg, relative to I.V. in saline): 1.5% | Maximal Effect (maximal decrease in basal Ca+2 levels) (I.C. 5.0 mg/kg): 17% | PA % (I.C. 5.0 mg/kg, relative to I.V. in saline): 0.4% | Maximal Effect (maximal decrease in basal Ca+2 levels) (I.V. 0.025 mg/kg): 20% | PA % (I.V. 0.025 mg/kg, saline group defines 100% PA): 100%
